Results from PubChem BioAssay AID1487 (National Center for Advancing Translational Sciences (NCATS), 2009).
The other results are listed elsewhere or left out. The main result of the screen is listed elsewhere. These columns were measured beside it and carry no call. The list favours compounds with an active or inconclusive main result. The note in brackets gives the kind of curve behind each potency; many fits are weak.

Test: qHTS Assay for Modulators of Lamin A Splicing
Conditions: HeLa LMNA splicing GFP/RFP minigene ratio, 48 h
How it was run: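 S3 HeLa cells stably expressing lamin A-EGFP splicing minigene plus DsRed2, 600 cells/well, 48 h compound exposure at 37C. Laser-scanning cytometry; analysed as GFP (500-530 nm)/RFP (575-640 nm) total intensity ratio; 0.5% DMSO vehicle.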

[1] = measured here: GFP splicing reporter channel
[2] = measured here: RFP viability control channel

| Compound | AC50 [1] | AC50 [2] |
| --- | --- | --- |
| CCN1CC(CN(C)Cc2cn(-c3ccc(C)cc3)nc2-c2cccc(C)c2)CC1=O (centres undefined) | 4.47 µM [falling, full curve] | 8.91 µM [falling, partial curve, poor fit] |
| Cc1cc(C)n(-c2nnc(C)n2/N=C/c2ccccc2O)n1 | 5.62 µM [falling, single point] | 5.62 µM [falling, single point] |
| O=C(O)CCNC(=O)c1ccc(Br)o1 |  | 4.47 µM [rising, partial curve, poor fit] |
| COc1ccc(-c2nc3sc(CCNC(=O)c4cc(OC)c(OC)c(OC)c4)c(C)n3n2)cc1 | 7.08 µM [falling, partial curve, poor fit] | 0.112 µM [falling, full curve, poor fit] |
| CCn1c2ccccc2c2cc(NC(=O)COC(=O)c3cc(S(=O)(=O)N4CCCCC4)ccc3Cl)ccc21 | 35.5 µM [rising, single point] | 35.5 µM [rising, single point] |
| O=C(CSC1=Nc2ccccc2C2=NC(CC(=O)NC3CCCCC3)C(=O)N12)Nc1ccc(F)cc1 (centres undefined) |  | 35.5 µM [rising, single point] |
| COC(=O)c1cc(NS(=O)(=O)c2ccc(OC)c(OC)c2)ccc1Cl |  | 15.8 µM [rising, partial curve] |
| CCOc1cc(CO)cc(Br)c1OCC(=O)Nc1ccccc1C |  | 0.0126 µM [falling, full curve, poor fit] |
| COc1cc2nc(N(C)CCCNC(=O)[C@@H]3CCCO3)nc(N)c2cc1OC | 0.002 µM [falling, full curve] | 0.00178 µM [falling, full curve, poor fit] |
| CC(C)(C)c1nc2cc(Cl)c([N+](=O)[O-])cc2o1 |  | 6.31 µM [falling, single point] |
| CCCCCCCN=CC1=C(O)CC(c2ccccc2)CC1=O (centres undefined) |  | 0.141 µM [falling, full curve, poor fit] |
| Cc1[nH]n(-c2ccccc2)c(=O)c1C(C[N+](=O)[O-])c1ccc(F)cc1 (centres undefined) | 25.1 µM [rising, single point] | 12.6 µM [rising, single point] |
| CCCS(=O)(=O)N1CCN(Cc2ccco2)CC1 |  | 5.62 µM [rising, single point] |
| CCOc1ccc(C2c3[nH]c4ccccc4c3CCN2C(=O)CCc2ccccc2)cc1 (centres undefined) | 0.891 µM [falling, full curve, poor fit] | 35.5 µM [rising, single point] |
| Cc1cc(C(=O)CSc2nn3c(=O)c(C(C)(C)C)nnc3s2)c(C)n1-c1ccc(F)cc1 | 10 µM [rising, partial curve, poor fit] |  |
| N#Cc1c(SCc2ccc(Cl)cc2)sc(C(=O)c2ccccc2)c1N | 12.6 µM [rising, single point] |  |
| O=C(c1cnn(C(=O)c2cccc(S(=O)(=O)N3CCOCC3)c2)c1)c1cc(Cl)cc(Cl)c1O | 10 µM [falling, partial curve] | 7.08 µM [falling, partial curve] |

| Compound | AC50 [1] | AC50 [2] |
| --- | --- | --- |
| O=C(NCc1ccco1)C1CCN(C(=O)N2CCOc3ccccc32)CC1 |  | 0.00316 µM [rising, full curve, poor fit] |
| O=[N+]([O-])c1ccc(-c2nc(-c3ccc(F)cc3)c(-c3ccncc3)[nH]2)cc1 | 6.31 µM [falling, partial curve] | 0.00447 µM [falling, full curve, poor fit] |
| Cc1ccc(NC(=O)CNC(=O)c2cccs2)cc1S(=O)(=O)Nc1ccc(Cl)cc1 |  | 14.1 µM [rising, single point] |
| CCOC(=O)C1(CCCc2ccccc2)CCN(C(=O)C2CCCO2)CC1 (centres undefined) | 0.00355 µM [falling, full curve, poor fit] | 0.00316 µM [falling, full curve, poor fit] |
| CCN(CC)CCOC(=O)c1ccc(NC(=O)Cn2ncc3c([nH]c4ccc(C)cc43)c2=O)cc1 | 11.2 µM [falling, partial curve] | 35.5 µM [falling, partial curve] |
| Cc1ccccc1N1CCN(c2ccc(NC(=O)C3CCCCC3C(=O)O)cc2)CC1 (centres undefined) | 17.8 µM [rising, partial curve] | 25.1 µM [rising, partial curve] |
| Cc1cc(Oc2ccc(C#N)cc2)nc(NCc2ccccc2)n1 | 3.16 µM [rising, partial curve] | 3.98 µM [rising, single point] |
| O=C(/C=C/Nc1ccc(Br)cc1F)c1ccccc1 | 0.794 µM [rising, partial curve] | 0.282 µM [rising, full curve] |
| Fc1cccc(NC(=S)NNc2c3ccccc3nc3ccccc23)c1 |  | 31.6 µM [rising, single point] |
| CCN1CCN(c2ccc(N=Cc3ccccc3O)cc2)CC1 |  | 12.6 µM [rising, partial curve] |
| Cc1ccccc1CNC(=O)c1ccc(CSCc2ccccc2)cc1 | 35.5 µM [rising, single point] | 35.5 µM [rising, single point] |
| Cc1[nH]n(-c2ccccc2)c(=O)c1C=Nc1cccc2cccnc12 |  | 17.8 µM [rising, single point] |
| CCN(CC)c1nc(SCCOC(=O)Nc2ccccc2)nc(N(CC)CC)n1 |  | 35.5 µM [rising, single point] |
| COc1ccc(N2C(=O)C(Cl)=C(Nc3ccccc3OC)C2=O)cc1 |  | 17.8 µM [rising, single point] |
| O=C1[C@@H]2[C@@H]3C[C@@H]([C@H]4ON=C(c5ccc(OCc6ccccc6)cc5)[C@@H]34)[C@@H]2C(=O)N1c1ccc2c(c1)OCO2 |  | 6.31 µM [rising, single point] |
| Clc1ccccc1CONc1ncnc2nonc12 | 17.8 µM [rising, single point] | 25.1 µM [rising, single point] |

Record cards, from the list above:
O=C(/C=C/Nc1ccc(Br)cc1F)c1ccccc1 is listed with AC50 [1]: 0.794 µM [rising, partial curve]; AC50 [2]: 0.282 µM [rising, full curve]
Cc1ccccc1CNC(=O)c1ccc(CSCc2ccccc2)cc1 is listed with AC50 [1]: 35.5 µM [rising, single point]; AC50 [2]: 35.5 µM [rising, single point]
